Measurements: patent US20150098946A1 (Genentech, published 2015)
These are yes or no findings as the source states them, for the method shown. Some entries that bind do so weakly or less than the wild type.

Chains of the proteins cited; added tags and fusions are not shown. Lines headed by an entry give the natural chain unless they say otherwise; changes in a name come on top.
UniProt P07949: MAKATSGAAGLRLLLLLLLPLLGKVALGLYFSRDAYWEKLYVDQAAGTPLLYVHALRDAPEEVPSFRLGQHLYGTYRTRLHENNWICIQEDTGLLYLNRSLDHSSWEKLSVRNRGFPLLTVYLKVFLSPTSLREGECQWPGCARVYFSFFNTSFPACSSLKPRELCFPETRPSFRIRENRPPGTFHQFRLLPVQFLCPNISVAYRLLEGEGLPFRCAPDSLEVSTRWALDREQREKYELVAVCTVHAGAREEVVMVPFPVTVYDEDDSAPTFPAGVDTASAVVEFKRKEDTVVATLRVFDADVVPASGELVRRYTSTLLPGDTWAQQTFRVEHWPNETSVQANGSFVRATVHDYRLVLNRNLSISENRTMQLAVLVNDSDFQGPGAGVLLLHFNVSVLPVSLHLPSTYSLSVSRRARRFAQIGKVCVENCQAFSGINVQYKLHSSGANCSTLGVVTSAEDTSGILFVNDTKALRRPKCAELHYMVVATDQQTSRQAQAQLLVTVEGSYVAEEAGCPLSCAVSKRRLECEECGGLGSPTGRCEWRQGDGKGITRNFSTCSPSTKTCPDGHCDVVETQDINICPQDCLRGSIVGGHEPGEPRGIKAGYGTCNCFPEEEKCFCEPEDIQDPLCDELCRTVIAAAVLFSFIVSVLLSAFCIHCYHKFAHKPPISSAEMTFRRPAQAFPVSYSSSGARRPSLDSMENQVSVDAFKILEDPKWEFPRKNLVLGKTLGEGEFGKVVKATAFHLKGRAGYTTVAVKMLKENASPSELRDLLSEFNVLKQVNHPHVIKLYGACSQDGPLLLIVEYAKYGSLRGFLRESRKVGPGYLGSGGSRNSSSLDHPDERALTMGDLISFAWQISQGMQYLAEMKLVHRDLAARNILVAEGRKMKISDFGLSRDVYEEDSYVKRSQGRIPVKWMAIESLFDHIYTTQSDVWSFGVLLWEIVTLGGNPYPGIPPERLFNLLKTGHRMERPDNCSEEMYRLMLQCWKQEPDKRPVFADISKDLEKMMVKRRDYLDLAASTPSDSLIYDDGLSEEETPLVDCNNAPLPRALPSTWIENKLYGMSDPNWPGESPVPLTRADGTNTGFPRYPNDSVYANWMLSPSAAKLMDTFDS

Target: TAT194 polypeptide on the cell surface (293 cells transfected to express TAT194, 293-RET; tumor cells) (human) (UniProt P07949)
Assay: binding to cells expressing TAT194 (FACS and other routine techniques)

Row | Binder | binding
1 | anti-TAT194 monoclonal antibody R4203 (antibody, V domains shown, Monoclonal antibody from a mouse hybridoma; kappa VL) VH: EVQLQQSGPELVKPGASMKISCKASGYSFTGFTMNWVKQSHGKNLEWIGLINPYNGVTNYNQKFRGKATLTVDESSSTAYMDLLSLTSEDSAVYYCARHYSFAMDYWGQGTSVTVSS VL: DIVLTQSPASLAVSLGQRATISCRASESVDGYGSSFMHWYQQKPGQPPKLLIYRTSNLESGIPARFSGSGSTTDFTLTINPVEADDVATYYCQQNSEDRTFGGGTKLEIKR | binds
2 | anti-TAT194 monoclonal antibody R4204 (antibody, V domains shown, Monoclonal antibody from a mouse hybridoma; kappa VL) VH: QVQLQQSGAELAKPGTSVKMSCKASGYTFTTYWMHWIKQRPGQGLEWIGYINPSTGYSEYNQKFKDKATLTADRSSSTAYMQLSSLTSEDSTVYYCARWRFYGSTYGMDYWGQGTSVTVSS VL: QIVLTQSPALMSAFPGEKVTLTCSASSSVTYMYWYQQKPRSSPKPWIYLTSKLASGVPSRFSGSGSGTSFSLTITSMEAEDAATYYCQQWTGNPLTFGAGTKLELKR | binds
3 | anti-TAT194 monoclonal antibody R4209 (antibody, V domains shown, Monoclonal antibody from a mouse hybridoma; kappa VL) VH: EVNLEESGGGLVQPGGSMKLSCVASGFTFSNYWMNWVRQSPEKGLEWVADISLKSNNYGTHYAESVNGRFTISRDDSTSSVYLQMNNLRAEDTGIYYCAVYYYGVKFYYFVLGYWGQGTSVTVSS VL: DIVMTQSHKFMSTSVGDRVSITCKASQDVSTAVAWYQQKPGQSPKLLIYWGSTRHTGVPDRFTGVGSGTDYSLTISSVQAEDLALYYCQQHYNIPWTFGGGTKLEIKR | binds
4 | anti-TAT194 monoclonal antibody R4208 (antibody, V domains shown, Monoclonal antibody from a mouse hybridoma; kappa VL) VH: QVHLQQSGSELRSPGSSVKLSCKDFDSEVFPIAYMSWVRQKPGHGFEWIGDILPNIGRTIYGEKFEDKATLDADTVSNTAYLELNSLTSEDSAMYYCGRSITRAWFAYWGQGTLVTVSV VL: DIQMTQSPSSLSASLGERVSLTCRASQEISGYLSWFQQKPDGTIKRLIYAASTLDSGVPKRFSGSRSGSDYSLTISSLASEDFADYFCLQYAGNPFTFGSGTKLEIKR | binds
5 | anti-TAT194 monoclonal antibody R4205 (antibody, V domains shown, Monoclonal antibody from a mouse hybridoma; kappa VL; also called anti-RET murine monoclonal antibody clone 4205) VH: QVQLKESGPGLVKPSQSLSLTCTVTGYSITSDYVWNWIRQFPGNKLEWMGYIHYSGGTSYNPSLKSRISITRDTSKNQFFLHLNSLTTEDTATYYCARGNYDWAFAYWGQGTLVTVSA VL: DVQITQSPSYLAASPGETITINCRASKSISKYLAWYQDKPGKTNKLLISSGSTLQSGIPSRFSGSGSGADFTLTISSLEPEDFAMYYCQQHNEYPWTFGGGTKLEIKR | binds
6 | anti-TAT194 monoclonal antibody R4206 (antibody, V domains shown, Monoclonal antibody from a mouse hybridoma; kappa VL) VH: DVQLQESGPGLVKPSQSLSLTCTVTGFSITSDYAWNWIRQFPGNKLEWMAYITYSGDTGYNPSLKSRISVTRDTSKNQFFLQLSSVTTEDTATYYCARGNYDWVFAYWGQGTLVTVSA VL: DVQITQSPSYLAASPGETITINCRASKSISKYLAWYQEKPGKTNKLLIYSGSTLQSGIPSRFSGSGSGTDFTLTISSLEPEDFAMYYCQQYIEYPWTFGGGTKLEIKR | binds
7 | anti-TAT194 monoclonal antibody R4207 (antibody, V domains shown, Monoclonal antibody from a mouse hybridoma; kappa VL) VH: DVQLQESGPGLVKPSQSLSLTCTVTGFSITSDYAWNWIRQFPGNKLEWMAYITYSGDTGYNPSLKSRISVTRDTSKNQFFLQLSSVTTEDTATYYCARGNYDWVFAYWGQGTLVTVSA VL: DVQITQSPSYLAASPGETITINCRASKSISKYLAWYQEKPGKTNKLLIYSGSTLQSGIPSRFSGSGSGTDFTLTISSLEPEDFAMYYCQQYIEYPWTFGGGTKLEIKR | binds
